Measurements reported in PubChem BioAssay AID1053208 (Peter MacCallum Cancer Centre, 2014).

Assay: 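Synthetic lethal interactions between gene loss and doxorubicin in osteosarcoma cells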 (primary screen)
Cell system: mouse osteosarcoma cells, early-passage culture from an engineered mouse model of fibroblastic bone tumour
Knock-down reagent: siRNA pool against mouse genes, 40 nM
Timing: about 120 h (48 h before drug, then 72 h with drug)
Conditions: doxorubicin 100 nM for 72 h, roughly 30-40% inhibitory dose
Read-out: 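Viability read as ATP luminescence after 72 h of 100 nM doxorubicin or none, duplicate wells averaged, scaled to non-targeting siRNA, then expressed as robust z-scores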
Reading the numbers: viability z-score with doxorubicin and doxorubicin viability vs non-targeting: higher = more viable cells under doxorubicin; viability z-score without drug: higher = more viable cells with knock-down alone; z-score of drug to no-drug ratio: higher = less drug sensitisation by knock-down
Active means: 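a pool counts as active when its viability z-score with doxorubicin is -2 or below and its z-score without drug lies between -2 and 2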
Shown is a random part of about 17,000 reagents tested. Of all reagents, 788 (4.7%) are marked active. 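Calls rest on z-score classes alone; an extra cut-off of viability at most 70% of control was not applied to them.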

| Target gene | combined z-score class | viability z-score with doxorubicin | viability z-score without drug | z-score of drug to no-drug ratio | doxorubicin viability vs non-targeting | Call |
| --- | --- | --- | --- | --- | --- | --- |
| Rhox4b | no change with or without drug | 0 | 1.18 | -0.67 | 0.94 | inactive |
| Astl | no change with or without drug | -1.57 | 0.17 | -1.69 | 0.8 | inactive |
| Slc25a3 | no change with or without drug | -1.91 | 1.01 | -2.47 | 0.77 | inactive |
| Doc2a | no change with or without drug | -0.11 | 1.35 | -0.9 | 0.93 | inactive |
| Bri3 | no change with or without drug | -0.22 | 0.17 | -0.22 | 0.92 | inactive |
| Or5an6 | no change with or without drug | 0 | -0.84 | 0.67 | 0.94 | inactive |
| Fam193b | no change with or without drug | -0.79 | -1.18 | 0.11 | 0.87 | inactive |
| Dnajc12 | no change with or without drug | -0.67 | 0.84 | -1.12 | 0.88 | inactive |
| Cypt4 | no change with or without drug | -1.8 | -1.85 | -0.56 | 0.78 | inactive |
| Prkar1b | no change with or without drug | 1.12 | 0 | 1.24 | 1.04 | inactive |
| Mif4gd | no change with or without drug | -1.12 | 1.18 | -1.8 | 0.84 | inactive |
| Gaa | no change with or without drug | 0.45 | -0.34 | 0.79 | 0.98 | inactive |
| Tmem74b | no change with or without drug | -1.12 | 0.51 | -1.35 | 0.84 | inactive |
| Or4c116 | high cell count without drug only | 1.57 | 2.7 | -0.11 | 1.08 | inactive |
| Nudt7 | no change with or without drug | 1.69 | -0.17 | 2.02 | 1.09 | inactive |
| Atp1b3 | no change with or without drug | 0.34 | 0.84 | -0.11 | 0.97 | inactive |
| Rcan3 | no change with or without drug | 1.8 | 0.51 | 1.57 | 1.1 | inactive |
| Igfbp5 | no change with or without drug | -0.67 | -0.84 | 0 | 0.88 | inactive |
| Timcc | no change with or without drug | -0.9 | 0 | -0.79 | 0.86 | inactive |
| Zic3 | no change with or without drug | -0.22 | -1.18 | 0.79 | 0.92 | inactive |

Entries listed so far whose target name begins with D or d:
| Target gene | combined z-score class | viability z-score with doxorubicin | viability z-score without drug | z-score of drug to no-drug ratio | doxorubicin viability vs non-targeting | Call |
| --- | --- | --- | --- | --- | --- | --- |
| Doc2a | no change with or without drug | -0.11 | 1.35 | -0.9 | 0.93 | inactive |
| Dnajc12 | no change with or without drug | -0.67 | 0.84 | -1.12 | 0.88 | inactive |
